Experimental data from the supplement of paper PMC10735217.
Where a name gives a salt, the structure may show the parent alone. The list shows a part of the results. Repeats in this data set agree poorly, so a single value says little.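 In a drug-repurposing library screen, luminescence reads luciferase driven by eight TEAD-binding elements, stably integrated into human kidney-derived cells. Compounds scoring over five robust Z scores above the plate mean are called hits.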

Tested on: HEK293A TEAD-LUC reporter
Experiment: TEAD-luciferase reporter activity (YAP activation), robust Z score vs plate; higher = stronger YAP/TEAD activation
Conditions: 24 h

| SMILES | TEAD-luciferase reporter activity (compound concentration: 200 nM) | TEAD-luciferase reporter activity (compound concentration: 2 uM) | TEAD-luciferase reporter activity (compound concentration: 10 uM) |
| --- | --- | --- | --- |
| N=C(N)NC(CS)C(=O)O (stereo unspecified) | inactive: 1.76 | inactive: -0.446 | inactive: 0.847 |
| O=C1NCc2ccccc2CC12CCCCN2Cc1cccc(O)c1 (stereo unspecified) | inactive: -0.215 | – | inactive: 2.96 |
| CC1OC(n2cc(F)c(=O)[nH]c2=O)C(O)C1O (stereo unspecified) [doxifluridine] | inactive: 0.608 | inactive: -0.715 | inactive: 1.98 |
| CS(=O)(=O)c1ccc(Cl)cc1Cn1cc(Cl)cc(C(N)=O)c1=N | inactive: -0.644 | inactive: 0.421 | inactive: 1.29 |
| Cc1cccc(N2CCN(CCc3ccc4ccccc4n3)CC2)c1 | inactive: 1.34 | inactive: -1.45 | inactive: -0.21 |
| Cc1nc(-c2cc(C(=O)N3CCC(c4ccc(C#N)cc4)CC3)c(C)cc2C2CCC2)n[nH]1 | inactive: -0.624 | inactive: -0.649 | inactive: -1.68 |
| CNC[C@@H](O)c1cccc(O)c1 [phenylepherine CDT, SCOLR] | inactive: -2.46 | – | inactive: 0.843 |
| CNC[C@@H](O)c1cccc(O)c1 [phenylepherine CDT] | – | inactive: -0.171 | – |
| CNC1C(O)C(OC2C(N)CC(N)C(OC3OC(CN)=CCC3N)C2O)OCC1(C)O (stereo unspecified) [pentisomicin] | inactive: -1.1 | – | active: 5.34 |
| Clc1cc(Cl)c(OCC#CI)cc1Cl | inactive: -0.0317 | inactive: 0.571 | inactive: 2.2 |
| CN(CCC(Oc1ccc(C(F)(F)F)cc1)c1ccccc1)CC(=O)O (stereo unspecified) | inactive: 0.606 | inactive: -1.85 | inactive: -1.97 |
| CCCN(CC)C(CC)C(=O)Nc1c(C)cccc1C (stereo unspecified) [Etidocaine hydrochloride] | inactive: -0.147 | inactive: -0.42 | inactive: 2.93 |
| COc1cccc2cc(-c3nc([C@H]4CC[C@H](C(=O)O)CC4)n4ncnc(N)c34)[nH]c12 | inactive: -0.427 | inactive: -0.781 | inactive: 0.786 |
| CC(=O)Nc1c(I)c(C(=O)N[C@H]2C(O)O[C@H](CO)[C@@H](O)[C@@H]2O)c(I)c(N(C)C(C)=O)c1I (stereo partly specified) [metrizamide] | active: 6.6 | inactive: 0.824 | inactive: -1.4 |
| COc1ccc(CC(=O)NC2CCN(c3ccc4ncc(-c5cccc(C(F)(F)F)c5)n4n3)CC2)cc1 | inactive: -0.461 | – | inactive: 1.53 |
| CN(C)CCSC(=O)N1c2ccccc2C(C)(C)c2ccccc21 [botiacrine] | inactive: 3.25 | inactive: 1.5 | inactive: 0.612 |
| CC(C)=CC[C@H](O)C1=CC(=O)c2c(O)ccc(O)c2C1=O | inactive: 0.749 | inactive: -0.735 | inactive: -2.18 |
| CC1=Nc2ccc(Cl)cc2S(=O)(=O)N1 | inactive: 1.85 | – | inactive: -0.243 |
| CC1=Nc2ccc(Cl)cc2S(=O)(=O)N1 [Diazoxide] | – | inactive: -0.85 | – |
| CC(C)NCC(O)COc1cccc2ccccc12 (stereo unspecified) | inactive: -0.866 | – | inactive: -0.96 |

| SMILES | TEAD-luciferase reporter activity (compound concentration: 200 nM) | TEAD-luciferase reporter activity (compound concentration: 2 uM) | TEAD-luciferase reporter activity (compound concentration: 10 uM) |
| --- | --- | --- | --- |
| CC(C)NCC(O)COc1cccc2ccccc12 (stereo unspecified) [propanolol] | – | inactive: 0.246 | – |
| CC(C)OP(=O)(COC(CF)Cn1cnc2c(N)ncnc21)OC(C)C (stereo unspecified) | inactive: -0.387 | inactive: -0.204 | inactive: -0.403 |
| CC1(C)[C@H]2CC[C@@H](CNC(=O)c3ccc(Cl)cc3)[C@@H]1C2 | inactive: -1.64 | – | inactive: 0.39 |
| COc1cc2nc(N3CCN(C(=O)C4CCCO4)CC3)nc(N)c2cc1OC (stereo unspecified) [Terazosin hydrochloride] | – | inactive: -1.74 | – |
| COc1cc2nc(N3CCN(C(=O)C4CCCO4)CC3)nc(N)c2cc1OC (stereo unspecified) [Terazosin] | inactive: -2.09 | – | inactive: -1.39 |
| OCCOc1ccc(/C(=C(/CCCl)c2ccccc2)c2ccccc2)cc1 [Ospemifene] | inactive: -1.17 | inactive: -1.73 | inactive: -0.996 |
| OC(CCCN1CCCCC1)(c1ccccc1)c1ccccc1 [Difenidol hydrochloride] | inactive: 0.0821 | – | inactive: 0.0555 |
| OC(CCCN1CCCCC1)(c1ccccc1)c1ccccc1 [Diphenidol hydrochloride] | – | inactive: -1.34 | – |
| COc1ccc2c(c1)c(CC(=O)O)c(C)n2C(=O)/C=C/c1ccccc1 | inactive: -1.54 | inactive: -0.77 | inactive: 0.868 |
| CC(C)CC(=O)Nc1cncc(-c2ccc3[nH]nc(-c4nc5cncc(-c6cccc(F)c6)c5[nH]4)c3c2)c1 | inactive: 0.0438 | active: 26.5 | active: 10.1 |
| CC1OC2(CCN(C)CC2)CC1=O (stereo unspecified) | inactive: 2.01 | inactive: -1.51 | inactive: 2.11 |
| NC(=O)CC(c1ccccc1)N1C(=O)c2ccccc2C1=O (stereo unspecified) | inactive: -0.742 | inactive: -0.628 | inactive: -1.08 |
| CC(C)=CCC/C(C)=C/CC/C(C)=C/CN1CCN(Cc2ccc3c(c2)OCO3)CC1 | inactive: -0.6 | inactive: 3.14 | inactive: -1.74 |
| Cn1nnnc1SCC1=C(C(=O)[O-])N2C(=O)[C@@H](NC(=O)[C@H](O)c3ccccc3)[C@H]2SC1 | inactive: 4.22 | – | inactive: 1.94 |
| C[C@H]1Cc2ccccc2N1C(=O)Cc1nc(N2CCOCC2)cc(=O)[nH]1 | inactive: -0.966 | inactive: -1.13 | inactive: -1.1 |
| CNS(=O)(=O)c1cc(OC)c(OC)c(C(=O)NCc2cccs2)c1 | inactive: 0.448 | inactive: -0.307 | inactive: -0.407 |
| COc1ccc2c(c1)[C@@H]1C[C@]1(C(=O)N1C3CCC1CN(C)C3)Cn1c-2c(C2CCCCC2)c2ccc(C(=O)NS(=O)(=O)N(C)C)cc21 [Beclabuvir] | inactive: -0.637 | inactive: 1.11 | active: 5.01 |
| C[n+]1cccc(C(N)=O)c1 | inactive: -0.729 | inactive: -0.142 | inactive: 0.0463 |
| NS(=O)(=O)C#Cc1ccccc1 [Pifithrin-mu] | inactive: -2.4 | inactive: 0.219 | inactive: -0.0814 |
| COCCOc1cc(Cn2c(C(=O)O)c(-c3ccc(C(C)(C)C)cc3)c3ccccc32)cc(OCCOC)c1 | inactive: -1.46 | inactive: 1.04 | inactive: 1.72 |

| SMILES | TEAD-luciferase reporter activity (compound concentration: 200 nM) | TEAD-luciferase reporter activity (compound concentration: 2 uM) | TEAD-luciferase reporter activity (compound concentration: 10 uM) |
| --- | --- | --- | --- |
| CC(C)(C)c1nnc(-c2nn(-c3ccccc3Cl)c(-c3ccc(Br)cc3)c2Cn2cncn2)s1 | inactive: 0.674 | inactive: 1.9 | inactive: 1.61 |
| COC(CNCC(C)C)COc1c(C)csc1C(=O)CCc1ccccc1 (stereo unspecified) | inactive: -0.344 | inactive: 1.98 | inactive: -0.0895 |
| CC(=O)NCCC(=O)N1Cc2ccccc2CC2(CCCN2CC2CCCCC2)C1 (stereo unspecified) | inactive: -0.936 | – | inactive: 2.93 |
| CCCCCCCCCCCCCC(=O)[O][Pt-2]1([O]C(=O)CCCCCCCCCCCCC)[NH2+][C@@H]2CCCC[C@H]2[NH2+]1 [Miriplatin hydrate] | inactive: -2.37 | inactive: 3.41 | inactive: 2.05 |
| CCn1cc(C(=O)O)c(=O)c2cc(F)c(N3CCNC(C)C3)c(F)c21 (stereo unspecified) [lomefloxacin] | inactive: -0.731 | inactive: 0.201 | inactive: 2.23 |
| N#Cc1ccc2c(c1)[C@H]1CN(CCCCNC(=O)c3ccc(-c4ccccc4)cc3)C[C@@H]1CO2 | inactive: -0.962 | inactive: 0.698 | inactive: -1.16 |
| CCOP(=O)(COc1cc(C)c(Cc2ccc(O)c(C(C)C)c2)c(C)c1)OCC | inactive: 0.985 | inactive: -0.373 | inactive: -0.88 |
| CC1(C)CC(=O)N(CCCCN2CCN(c3ncccn3)CC2)C(=O)C1 [Gepirone hydrochloride] | inactive: -2.45 | inactive: -0.23 | inactive: 1.57 |
| CC(C)CCN(C[C@@H](O)[C@H](Cc1ccccc1)NC(=O)C(C)C(C)(C)C(N)=O)C(=O)NC(C)(C)C (stereo partly specified) | inactive: -1.03 | inactive: 0.57 | inactive: 0.114 |
| O=C(O)CN1C(=O)[C@@H](NC(CCCCC2CCNCC2)C(=O)O)CSc2ccccc21 (stereo partly specified) | inactive: -0.801 | inactive: -0.469 | inactive: 0.406 |
| O=C(O)c1cc(=O)[nH]c(=O)[nH]1 [Orotic acid] | inactive: -0.395 | inactive: -1.77 | inactive: 0.766 |
| Cc1nc(NCC2CC2)c(C)c(Nc2c(Cl)cc(C)c3nccnc23)n1 | inactive: -0.886 | inactive: 0.584 | inactive: 1.78 |
| CC(SC(=O)c1cccs1)C(=O)NCC(=O)O (stereo unspecified) [stepronin] | inactive: -0.944 | inactive: -1.48 | inactive: 2.48 |
| COC(=O)[C@H](C/C=C/c1ccc(N(C)c2ncccn2)cc1)NC(=O)c1ccccc1 | inactive: 0.0179 | inactive: -0.495 | inactive: 0.0344 |
| CC(=O)NC[C@H]1CN(c2ccc(-c3ccc(CNCc4cnn[nH]4)cc3)c(F)c2)C(=O)O1 [radezolid] | inactive: -0.509 | inactive: 0.225 | inactive: -0.118 |
| O=S(=O)(c1cccc2cnccc12)N1CCCNCC1 [fasudil ER] | inactive: 3.46 | inactive: 0.723 | inactive: 0.167 |
| CCCCCCCCCCCCOC(=O)CCSCCC(=O)OCCCCCCCCCCCC | inactive: -1.69 | inactive: -0.568 | inactive: 0.333 |
| CCCCC/C=C\C/C=C\CCCCCCCc1ccco1 | inactive: 0.512 | inactive: -0.394 | inactive: 1.22 |
| COc1cc2c(cc1Cc1cccc(Cl)c1F)c(=O)c(C(=O)O)cn2[C@H](CO)C(C)C [Elvitegravir] | inactive: 0.0856 | inactive: -0.441 | inactive: 0.871 |

Quoted at random: four entries already listed

| SMILES | TEAD-luciferase reporter activity (compound concentration: 200 nM) | TEAD-luciferase reporter activity (compound concentration: 2 uM) | TEAD-luciferase reporter activity (compound concentration: 10 uM) |
| --- | --- | --- | --- |
| CC(=O)NCCC(=O)N1Cc2ccccc2CC2(CCCN2CC2CCCCC2)C1 (stereo unspecified) | inactive: -0.936 | – | inactive: 2.93 |
| O=C(O)c1cc(=O)[nH]c(=O)[nH]1 [Orotic acid] | inactive: -0.395 | inactive: -1.77 | inactive: 0.766 |
| COC(CNCC(C)C)COc1c(C)csc1C(=O)CCc1ccccc1 (stereo unspecified) | inactive: -0.344 | inactive: 1.98 | inactive: -0.0895 |
| O=S(=O)(c1cccc2cnccc12)N1CCCNCC1 [fasudil ER] | inactive: 3.46 | inactive: 0.723 | inactive: 0.167 |
